The record followed here is article PMC10459988.

The exact form of at least one protein or probe is not confirmed. For part of these data: Negatives hold for the conditions tested.

Data set [1] relates to GST-GmERF105 (Glycine max (soybean) cv. Williams 82). Description: competition with a labelled probe. As to conditions: EMSA Kit (Beyotime), pH and temperature not stated, recombinant protein, protein details: N-terminal GST (pGEX-6P-1, printed PGX-6P-1). (In general: A gel shift assay detects complexes by their altered migration in electrophoresis.)
Data set [2] shares this test system. Description: EMSA. Particulars: EMSA Kit (Beyotime); pH and temperature not stated; recombinant protein; protein details: N-terminal GST (pGEX-6P-1, printed PGX-6P-1).

“CGCCGCCAATTGCCGCCAATAGCCGCCA / GGCGGCTATTGGCGGCAATTGGCGGCG [GCC-box cold competitor]”: in data set [1] (1000x unlabeled competitor against labeled GCC-box (EMSA)), the binding result is given as “binds”.
Regarding “CTCCTCCAATTTCCTCCAATATCCTCC (double strand) [mGCC-box competitor]”, the binding result in data set [1] (unlabeled mutant competitor against labeled GCC-box (EMSA)) is listed as “no binding”.
As for “CGCCGCCAATTGCCGCCAATAGCCGCCA / GGCGGCTATTGGCGGCAATTGGCGGCG [GCC-box probe]”, the binding result in data set [2] is “binds”.
